Experimental data reported in patent publication US20140275090A1, “BILE ACID RECYCLING INHIBITORS FOR TREATMENT OF PRIMARY SCLEROSING CHOLANGITIS AND INFLAMMATORY BOWEL DISEASE” (Lumena Pharmaceuticals, Inc., priority 2013, published 2014).

Test: Body weight, hamsters dosed 28 days
Assay type: in vivo, golden Syrian hamster
Details: hamster

SMILES: CCCCC1(CCCC)CS(=O)(=O)c2ccc(N(C)C)cc2[C@@H](c2ccc(OCc3ccc(C[N+]45CCN(CC4)CC5)cc3)cc2)[C@H]1O [LUM001]
- Body Weight (BW) (5 mg/kg/day Q.D. gavage): 130 ± 5 g
- Body Weight (BW) (15 mg/kg/day Q.D. gavage): 136 ± 4 g
- Body Weight (BW) (50 mg/kg/day Q.D. gavage): 130 ± 4 g
